The values below come from PMC8882779.

The target in assay [1] is T1, BD-ZmTE1 (TERMINAL EAR 1, bait in pGBKT7) (maize) (UniProt O65001).
T1 sequence: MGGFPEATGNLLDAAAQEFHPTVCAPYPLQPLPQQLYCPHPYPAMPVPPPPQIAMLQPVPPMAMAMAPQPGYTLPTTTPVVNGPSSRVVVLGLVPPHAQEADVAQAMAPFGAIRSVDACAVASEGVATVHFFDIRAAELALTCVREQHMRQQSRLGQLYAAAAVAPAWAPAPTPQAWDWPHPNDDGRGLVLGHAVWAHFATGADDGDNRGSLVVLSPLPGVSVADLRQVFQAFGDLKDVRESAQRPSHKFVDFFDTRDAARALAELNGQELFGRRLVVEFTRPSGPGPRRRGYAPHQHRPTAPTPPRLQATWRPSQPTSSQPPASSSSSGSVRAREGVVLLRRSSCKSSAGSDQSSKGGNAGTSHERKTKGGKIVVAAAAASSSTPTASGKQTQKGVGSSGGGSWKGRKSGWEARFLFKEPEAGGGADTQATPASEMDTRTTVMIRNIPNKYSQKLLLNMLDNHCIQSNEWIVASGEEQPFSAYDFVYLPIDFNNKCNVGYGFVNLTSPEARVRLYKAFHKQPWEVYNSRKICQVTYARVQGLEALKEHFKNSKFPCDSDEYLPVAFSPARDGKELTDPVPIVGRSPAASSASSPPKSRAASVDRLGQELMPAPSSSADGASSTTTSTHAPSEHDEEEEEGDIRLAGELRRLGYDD
As to the kind of experiment: two-hybrid; Matchmaker GAL4 Two-Hybrid System 3; ZmTE1 in pGBKT7 (BD) as bait to screen a maize cDNA library, candidates re-cloned in pGADT7 (AD); yeast Y2HGold; growth on SD -LWH and -LWAH.

The target of assay [2] is T2, ZmTE1-Myc (35S::ZmTE1-Myc) (maize) (UniProt O65001).
T2 sequence: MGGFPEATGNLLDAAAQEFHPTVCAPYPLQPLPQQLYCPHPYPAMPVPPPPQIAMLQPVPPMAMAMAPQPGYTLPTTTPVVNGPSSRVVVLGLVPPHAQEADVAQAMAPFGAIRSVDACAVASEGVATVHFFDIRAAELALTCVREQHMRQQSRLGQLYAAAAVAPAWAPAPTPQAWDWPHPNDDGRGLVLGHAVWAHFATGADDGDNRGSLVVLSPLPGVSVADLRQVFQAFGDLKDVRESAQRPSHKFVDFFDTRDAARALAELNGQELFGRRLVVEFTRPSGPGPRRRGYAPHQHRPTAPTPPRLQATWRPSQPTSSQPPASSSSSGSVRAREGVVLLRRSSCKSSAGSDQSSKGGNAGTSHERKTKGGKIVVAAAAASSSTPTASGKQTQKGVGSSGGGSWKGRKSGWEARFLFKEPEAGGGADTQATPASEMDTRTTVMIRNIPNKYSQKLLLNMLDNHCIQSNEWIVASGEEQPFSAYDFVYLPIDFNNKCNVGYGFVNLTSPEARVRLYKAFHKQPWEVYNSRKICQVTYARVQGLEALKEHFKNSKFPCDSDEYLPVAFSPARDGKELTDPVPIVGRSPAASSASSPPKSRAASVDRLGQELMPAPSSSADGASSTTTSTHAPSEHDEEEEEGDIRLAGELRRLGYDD
In words: co-IP; Myc- and YFP-tagged proteins transiently expressed in Arabidopsis mesophyll cells; lysate (10 mM Tris-HCl pH 7.5, 150 mM NaCl, 0.5 mM EDTA, 0.5% NP-40) on MYC-Trap magnetic agarose beads, 4 °C, 2 h; blots with anti-MYC and anti-GFP.

The target in assay [3] is ZmPP2Ac-2-Myc (35S::ZmPP2Ac-2-Myc) (maize). The assay is described as above.

These are yes or no findings as the source states them, for the method shown. Binding can be weak; no strength is given. Tags and fused reporters may be left off the sequences shown. For part of these data: In cells and extracts the contact can be indirect.

For AD-ZmARF32 (prey in pGADT7) (maize), the binding entry in assay [1] was “binds”.

Take AD-ZmMBR1 (prey in pGADT7) (maize): the binding result in assay [1] is “binds”.

Take “AD-ZmPP2Ac-2 (prey in pGADT7) (maize) (enzyme)”: the binding entry in assay [1] is listed as “binds”.

Turning to “AD-ZmWEE1 (prey in pGADT7) (maize) (enzyme)”, the binding result in assay [1] is reported as “binds”.

As for “ZmWEE1-YFP (35S::ZmWEE1-YFP) (maize) (enzyme)”, the binding entry in assay [2] is “binds”.

B1: ZmTE1-YFP (35S::ZmTE1-YFP) (protein, UniProt O65001 1-656)
chain: MGGFPEATGNLLDAAAQEFHPTVCAPYPLQPLPQQLYCPHPYPAMPVPPPPQIAMLQPVPPMAMAMAPQPGYTLPTTTPVVNGPSSRVVVLGLVPPHAQEADVAQAMAPFGAIRSVDACAVASEGVATVHFFDIRAAELALTCVREQHMRQQSRLGQLYAAAAVAPAWAPAPTPQAWDWPHPNDDGRGLVLGHAVWAHFATGADDGDNRGSLVVLSPLPGVSVADLRQVFQAFGDLKDVRESAQRPSHKFVDFFDTRDAARALAELNGQELFGRRLVVEFTRPSGPGPRRRGYAPHQHRPTAPTPPRLQATWRPSQPTSSQPPASSSSSGSVRAREGVVLLRRSSCKSSAGSDQSSKGGNAGTSHERKTKGGKIVVAAAAASSSTPTASGKQTQKGVGSSGGGSWKGRKSGWEARFLFKEPEAGGGADTQATPASEMDTRTTVMIRNIPNKYSQKLLLNMLDNHCIQSNEWIVASGEEQPFSAYDFVYLPIDFNNKCNVGYGFVNLTSPEARVRLYKAFHKQPWEVYNSRKICQVTYARVQGLEALKEHFKNSKFPCDSDEYLPVAFSPARDGKELTDPVPIVGRSPAASSASSPPKSRAASVDRLGQELMPAPSSSADGASSTTTSTHAPSEHDEEEEEGDIRLAGELRRLGYDD
Turning to B1, the binding entry in assay [3] is “binds”.
